According to the supplement of paper PMC12067093, “Discovery and optimisation of a covalent ligand for TRIM25 and its application to targeted protein ubiquitination” (Chemical Science, 2025):
The other results are listed elsewhere or left out.

Amino acid sequences for entries named in this document (tags omitted). A change or cut given only in a name is not applied to a line headed by its entry.
UniProt O43542: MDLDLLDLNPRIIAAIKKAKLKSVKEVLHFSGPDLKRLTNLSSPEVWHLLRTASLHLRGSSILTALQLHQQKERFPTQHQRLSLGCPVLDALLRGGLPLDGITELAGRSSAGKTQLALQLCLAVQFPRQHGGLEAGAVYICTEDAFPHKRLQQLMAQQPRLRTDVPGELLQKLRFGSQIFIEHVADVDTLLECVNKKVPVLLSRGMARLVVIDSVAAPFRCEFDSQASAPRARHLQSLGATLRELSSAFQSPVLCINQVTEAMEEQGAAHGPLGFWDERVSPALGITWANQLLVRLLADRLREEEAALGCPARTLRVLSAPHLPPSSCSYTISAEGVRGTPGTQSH
UniProt Q8TBK6: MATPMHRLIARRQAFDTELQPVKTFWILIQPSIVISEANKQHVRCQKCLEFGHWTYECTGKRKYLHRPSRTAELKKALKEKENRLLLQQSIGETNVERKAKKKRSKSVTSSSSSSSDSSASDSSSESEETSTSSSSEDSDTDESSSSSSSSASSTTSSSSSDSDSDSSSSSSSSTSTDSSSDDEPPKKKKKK
UniProt Q86WB0: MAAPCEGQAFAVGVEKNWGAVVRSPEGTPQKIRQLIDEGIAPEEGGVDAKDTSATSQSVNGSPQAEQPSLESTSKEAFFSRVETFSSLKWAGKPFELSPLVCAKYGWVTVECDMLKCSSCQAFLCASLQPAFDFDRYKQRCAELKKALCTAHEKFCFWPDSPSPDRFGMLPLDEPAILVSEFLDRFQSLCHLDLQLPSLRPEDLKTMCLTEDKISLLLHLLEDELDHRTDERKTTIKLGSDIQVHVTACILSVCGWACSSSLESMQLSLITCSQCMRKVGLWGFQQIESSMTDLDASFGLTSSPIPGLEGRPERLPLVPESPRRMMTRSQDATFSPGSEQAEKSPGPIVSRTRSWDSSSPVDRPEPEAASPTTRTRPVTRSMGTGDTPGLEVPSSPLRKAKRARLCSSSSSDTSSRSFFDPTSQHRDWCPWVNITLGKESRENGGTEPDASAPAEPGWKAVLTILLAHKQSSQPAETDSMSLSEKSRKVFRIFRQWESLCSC
UniProt O75132: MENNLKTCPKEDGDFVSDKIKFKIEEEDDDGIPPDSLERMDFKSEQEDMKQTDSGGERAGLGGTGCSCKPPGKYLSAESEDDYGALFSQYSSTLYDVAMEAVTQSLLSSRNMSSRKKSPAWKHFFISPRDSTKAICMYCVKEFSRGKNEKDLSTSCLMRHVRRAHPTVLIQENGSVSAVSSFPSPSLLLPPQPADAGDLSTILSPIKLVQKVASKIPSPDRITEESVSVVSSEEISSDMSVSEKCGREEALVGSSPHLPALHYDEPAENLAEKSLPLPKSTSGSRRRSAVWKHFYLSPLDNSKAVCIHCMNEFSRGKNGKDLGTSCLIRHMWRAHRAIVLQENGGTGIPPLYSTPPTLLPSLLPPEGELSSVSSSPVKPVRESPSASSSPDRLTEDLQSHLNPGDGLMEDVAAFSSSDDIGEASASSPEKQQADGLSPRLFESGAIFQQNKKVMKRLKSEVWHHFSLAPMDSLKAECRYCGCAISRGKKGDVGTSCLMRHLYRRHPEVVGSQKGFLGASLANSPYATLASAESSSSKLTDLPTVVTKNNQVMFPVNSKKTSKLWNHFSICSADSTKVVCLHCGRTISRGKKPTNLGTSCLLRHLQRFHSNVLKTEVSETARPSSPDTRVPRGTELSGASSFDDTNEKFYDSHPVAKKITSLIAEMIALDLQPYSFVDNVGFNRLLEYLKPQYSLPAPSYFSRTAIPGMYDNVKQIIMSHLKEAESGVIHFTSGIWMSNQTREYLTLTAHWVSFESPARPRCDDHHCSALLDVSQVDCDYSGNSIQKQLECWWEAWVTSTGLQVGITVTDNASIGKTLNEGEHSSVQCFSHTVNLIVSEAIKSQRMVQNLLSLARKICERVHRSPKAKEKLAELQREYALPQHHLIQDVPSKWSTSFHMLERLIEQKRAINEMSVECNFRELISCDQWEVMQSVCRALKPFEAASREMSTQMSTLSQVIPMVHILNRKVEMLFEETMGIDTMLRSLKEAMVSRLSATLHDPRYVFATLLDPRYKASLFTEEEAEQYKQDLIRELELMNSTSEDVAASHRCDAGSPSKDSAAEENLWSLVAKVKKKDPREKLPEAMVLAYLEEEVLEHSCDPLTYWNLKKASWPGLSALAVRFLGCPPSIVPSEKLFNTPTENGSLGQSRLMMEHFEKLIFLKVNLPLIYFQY
UniProt O95365: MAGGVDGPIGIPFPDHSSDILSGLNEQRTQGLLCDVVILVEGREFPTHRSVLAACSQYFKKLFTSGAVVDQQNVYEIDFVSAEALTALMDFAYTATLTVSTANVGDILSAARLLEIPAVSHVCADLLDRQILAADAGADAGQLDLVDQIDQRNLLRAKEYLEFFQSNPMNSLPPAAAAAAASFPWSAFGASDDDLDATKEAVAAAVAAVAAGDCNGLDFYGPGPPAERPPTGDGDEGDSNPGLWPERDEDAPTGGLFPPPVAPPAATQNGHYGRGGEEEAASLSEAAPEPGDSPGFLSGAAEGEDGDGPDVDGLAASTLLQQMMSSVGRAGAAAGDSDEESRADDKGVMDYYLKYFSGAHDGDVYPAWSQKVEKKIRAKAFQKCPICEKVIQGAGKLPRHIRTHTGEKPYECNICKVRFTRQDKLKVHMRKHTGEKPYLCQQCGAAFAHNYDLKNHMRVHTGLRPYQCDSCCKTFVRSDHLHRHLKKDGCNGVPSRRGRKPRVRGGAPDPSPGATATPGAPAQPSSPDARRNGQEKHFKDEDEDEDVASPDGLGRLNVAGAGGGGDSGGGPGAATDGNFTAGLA
UniProt Q96H79: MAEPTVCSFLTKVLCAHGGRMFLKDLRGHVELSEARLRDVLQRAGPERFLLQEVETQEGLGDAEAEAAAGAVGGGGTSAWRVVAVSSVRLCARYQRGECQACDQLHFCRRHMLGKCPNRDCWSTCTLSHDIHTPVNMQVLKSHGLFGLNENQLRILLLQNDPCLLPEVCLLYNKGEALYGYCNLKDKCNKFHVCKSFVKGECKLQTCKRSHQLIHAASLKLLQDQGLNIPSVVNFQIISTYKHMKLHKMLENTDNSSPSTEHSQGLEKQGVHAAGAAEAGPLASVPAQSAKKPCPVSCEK
UniProt Q7Z2W4: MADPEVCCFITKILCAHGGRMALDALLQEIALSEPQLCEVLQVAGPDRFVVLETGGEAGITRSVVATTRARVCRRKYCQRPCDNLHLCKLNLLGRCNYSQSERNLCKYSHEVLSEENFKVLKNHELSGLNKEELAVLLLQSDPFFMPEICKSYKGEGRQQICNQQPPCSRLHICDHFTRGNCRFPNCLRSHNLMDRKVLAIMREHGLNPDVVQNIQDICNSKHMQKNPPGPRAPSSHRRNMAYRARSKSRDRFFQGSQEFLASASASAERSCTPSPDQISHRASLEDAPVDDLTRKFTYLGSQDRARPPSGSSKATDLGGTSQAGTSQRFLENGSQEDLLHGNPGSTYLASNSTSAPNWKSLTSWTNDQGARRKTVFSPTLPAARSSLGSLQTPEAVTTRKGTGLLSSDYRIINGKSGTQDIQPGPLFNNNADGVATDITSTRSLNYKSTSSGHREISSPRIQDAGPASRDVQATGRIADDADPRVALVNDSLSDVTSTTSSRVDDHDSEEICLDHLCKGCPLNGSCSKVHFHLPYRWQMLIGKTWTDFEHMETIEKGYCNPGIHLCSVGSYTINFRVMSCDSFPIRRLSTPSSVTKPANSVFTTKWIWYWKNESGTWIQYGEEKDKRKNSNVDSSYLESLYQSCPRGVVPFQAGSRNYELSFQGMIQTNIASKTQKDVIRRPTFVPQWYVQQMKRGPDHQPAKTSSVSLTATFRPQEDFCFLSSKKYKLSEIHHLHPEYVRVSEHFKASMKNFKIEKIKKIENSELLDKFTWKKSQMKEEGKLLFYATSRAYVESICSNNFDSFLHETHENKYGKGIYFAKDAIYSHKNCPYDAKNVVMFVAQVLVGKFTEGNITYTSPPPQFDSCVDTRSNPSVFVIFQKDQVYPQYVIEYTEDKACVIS
UniProt Q8IWR0: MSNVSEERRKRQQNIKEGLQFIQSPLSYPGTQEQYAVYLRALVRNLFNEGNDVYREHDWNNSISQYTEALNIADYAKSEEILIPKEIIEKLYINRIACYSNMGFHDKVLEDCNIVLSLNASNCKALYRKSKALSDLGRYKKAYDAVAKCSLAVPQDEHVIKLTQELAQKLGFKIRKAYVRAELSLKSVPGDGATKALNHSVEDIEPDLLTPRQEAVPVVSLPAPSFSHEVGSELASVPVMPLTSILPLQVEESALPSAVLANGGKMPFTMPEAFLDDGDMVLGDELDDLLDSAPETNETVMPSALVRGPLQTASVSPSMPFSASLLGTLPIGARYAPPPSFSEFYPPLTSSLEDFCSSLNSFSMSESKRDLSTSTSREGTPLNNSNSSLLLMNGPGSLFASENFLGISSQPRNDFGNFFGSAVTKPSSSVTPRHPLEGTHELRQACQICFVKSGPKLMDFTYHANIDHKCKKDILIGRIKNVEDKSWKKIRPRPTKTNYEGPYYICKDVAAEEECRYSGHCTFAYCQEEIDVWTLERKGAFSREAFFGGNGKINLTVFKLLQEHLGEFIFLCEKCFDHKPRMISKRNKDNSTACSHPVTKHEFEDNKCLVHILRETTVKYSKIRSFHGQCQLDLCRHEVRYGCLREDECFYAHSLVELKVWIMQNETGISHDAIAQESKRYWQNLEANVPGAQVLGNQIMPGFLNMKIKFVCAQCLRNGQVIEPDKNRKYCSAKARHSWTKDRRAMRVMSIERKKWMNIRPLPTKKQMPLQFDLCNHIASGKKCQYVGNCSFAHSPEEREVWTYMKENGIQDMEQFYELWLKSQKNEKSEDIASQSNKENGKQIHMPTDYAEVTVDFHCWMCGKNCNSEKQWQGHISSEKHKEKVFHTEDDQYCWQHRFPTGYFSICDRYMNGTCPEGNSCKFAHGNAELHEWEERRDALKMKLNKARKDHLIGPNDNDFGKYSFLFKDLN
UniProt A8MPS7: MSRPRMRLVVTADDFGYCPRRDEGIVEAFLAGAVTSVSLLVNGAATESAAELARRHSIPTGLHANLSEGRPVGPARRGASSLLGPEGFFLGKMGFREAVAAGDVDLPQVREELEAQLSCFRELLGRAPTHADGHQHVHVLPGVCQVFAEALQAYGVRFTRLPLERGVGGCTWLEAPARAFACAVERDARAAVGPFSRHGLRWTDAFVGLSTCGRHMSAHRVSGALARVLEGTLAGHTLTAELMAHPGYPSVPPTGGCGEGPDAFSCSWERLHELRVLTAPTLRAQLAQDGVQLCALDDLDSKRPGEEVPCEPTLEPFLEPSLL
UniProt Q9C0B9: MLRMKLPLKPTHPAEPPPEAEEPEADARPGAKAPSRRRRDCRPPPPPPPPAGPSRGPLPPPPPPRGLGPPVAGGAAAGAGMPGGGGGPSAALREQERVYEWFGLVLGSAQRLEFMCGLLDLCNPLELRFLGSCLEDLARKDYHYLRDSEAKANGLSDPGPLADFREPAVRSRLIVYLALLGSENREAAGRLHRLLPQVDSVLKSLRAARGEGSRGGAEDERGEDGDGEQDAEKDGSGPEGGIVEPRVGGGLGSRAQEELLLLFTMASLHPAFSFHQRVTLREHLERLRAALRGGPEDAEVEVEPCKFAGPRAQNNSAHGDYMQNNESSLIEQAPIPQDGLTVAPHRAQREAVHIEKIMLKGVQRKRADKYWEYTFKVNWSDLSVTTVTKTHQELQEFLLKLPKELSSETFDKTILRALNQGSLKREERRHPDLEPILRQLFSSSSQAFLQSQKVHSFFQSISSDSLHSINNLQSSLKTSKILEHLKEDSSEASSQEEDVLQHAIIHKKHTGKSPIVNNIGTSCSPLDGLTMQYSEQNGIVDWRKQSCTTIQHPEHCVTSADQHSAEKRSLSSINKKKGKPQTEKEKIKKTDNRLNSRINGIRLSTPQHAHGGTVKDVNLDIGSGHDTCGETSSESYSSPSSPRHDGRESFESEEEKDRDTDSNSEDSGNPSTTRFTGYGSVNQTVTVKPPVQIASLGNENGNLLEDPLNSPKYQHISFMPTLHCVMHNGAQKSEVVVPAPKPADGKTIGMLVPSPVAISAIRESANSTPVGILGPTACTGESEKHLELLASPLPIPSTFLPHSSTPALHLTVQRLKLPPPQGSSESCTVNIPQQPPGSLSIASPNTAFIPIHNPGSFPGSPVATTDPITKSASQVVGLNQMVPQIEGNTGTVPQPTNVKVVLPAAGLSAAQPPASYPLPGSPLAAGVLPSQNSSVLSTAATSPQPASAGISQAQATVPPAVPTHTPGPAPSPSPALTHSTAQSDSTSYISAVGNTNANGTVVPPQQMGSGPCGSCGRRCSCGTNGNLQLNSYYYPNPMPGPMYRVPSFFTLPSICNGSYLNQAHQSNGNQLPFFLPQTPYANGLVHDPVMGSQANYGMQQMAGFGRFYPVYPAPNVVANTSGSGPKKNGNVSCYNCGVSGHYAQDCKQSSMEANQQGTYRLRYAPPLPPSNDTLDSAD

Compound: Cc1cc(ccc1-c1ccccc1)C(=O)N1CCCN(CC1)C(=O)CCl [compound 10]
Test: probe-labelled cysteine peptide fold change vs DMSO (competition) (log2 fold change); higher = less target engagement (more negative = stronger competition)
Settings: THP-1, incubation time: 4 h
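Note: competitive profiling in live THP-1 cells: cysteine peptides tagged with an iodoacetamide desthiobiotin (IA-DTB) probe, intensity after compound treatment relative to DMSO-treated cells.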

Target | probe-labelled cysteine peptide fold change (10 µM) | probe-labelled cysteine peptide fold change (50 µM)
XRCC3_O43542_193_FGSQIFIEHVADVDTLLECVNK (UniProt O43542) | -0.0318 | -0.00191
ZCCHC10_Q8TBK6_58_CLEFGHWTYECTGK (UniProt Q8TBK6) | 0.067 | 0.38
ZC3H12D_A2A288_111_ETFSCR (UniProt A2A288) | -0.109 | -0.65
ZC3HC1_Q86WB0_5_AAPCEGQAFAVGVEK (UniProt Q86WB0) | -0.353 | -0.54
ZC3H11A_O75152_588_SVLTPLRGDVASCNTQVAEK (UniProt O75152) | -0.0147 | 0.00571
ZBED4_O75132_1124_FLGCPPSIVPSEK (UniProt O75132) | -0.0503 | 0.183
ZCCHC3_Q9NUD5_385_GHAFAQCPK (UniProt Q9NUD5) | 0.0381 | -0.0115
YBEY_P58557_121_ENEDYNDVLTVTATHGLCHLLGFTHGTEAEWQQMFQK (UniProt P58557) | 0.239 | -0.191
ZBTB7A_O95365_123_LLEIPAVSHVCADLLDR (UniProt O95365) | 0.0274 | 0.227
ZCCHC4_Q9H5U6_19_NGFEAVEAEGSAGCR (UniProt Q9H5U6) | -0.284 | -0.772
YTHDC2_Q9H6S0_25_QPAPGGGGGGGPSPCGPGGGGR (UniProt Q9H6S0) | -0.289 | -0.35
ZC3HAV1L_Q96H79_163_ILLLQNDPCLLPEVCLLYNK (UniProt Q96H79) | 0.129 | 0.0761
ZC3HC1_Q86WB0_406_LCSSSSSDTSSR (UniProt Q86WB0) | -0.246 | -0.86
XRCC3_O43542_86_LSLGCPVLDALLR (UniProt O43542) | -0.0719 | -0.363
ZBTB34_Q8NCN2_402_LHMGITPFVCK (UniProt Q8NCN2) | -0.127 | -0.0641
ZC3HAV1_Q7Z2W4_721_TSSVSLTATFRPQEDFCFLSSK (UniProt Q7Z2W4) | -0.024 | -0.396
ZC3H7A_Q8IWR0_515_DVAAEEECR (UniProt Q8IWR0) | -0.0685 | -0.0963

Target | probe-labelled cysteine peptide fold change (10 µM) | probe-labelled cysteine peptide fold change (50 µM)
ZC3HAV1_Q7Z2W4_831_NCPYDAK (UniProt Q7Z2W4) | -0.115 | 0.0469
YWHAZ_P63104_25_LAEQAERYDDMAACMK (UniProt P63104) | -0.163 | -0.821
XXYLT1_Q8NBI6_386_IYHGNCNTPIPED (UniProt Q8NBI6) | -0.00561 | -0.0309
YDJC_A8MPS7_212_WTDAFVGLSTCGR (UniProt A8MPS7) | -0.364 | -0.788
XPO7_Q9UIA9_15_ADHVQSLAQLENLCK (UniProt Q9UIA9) | 0.239 | 0.121
XPO6_Q96QU8_159_TTSEELACPR (UniProt Q96QU8) | -0.0411 | 0.0136
ZC3HAV1_Q7Z2W4_78_YCQRPCDNLHLCK (UniProt Q7Z2W4) | 0.0823 | -0.0451
ZC3H7A_Q8IWR0_894_VFHTEDDQYCWQHR (UniProt Q8IWR0) | -0.0643 | -0.276
ZCCHC2_Q9C0B9_305_GGPEDAEVEVEPCK (UniProt Q9C0B9) | -0.104 | -0.485
YWHAG_P61981_194_LGLALNYSVFYYEIQNAPEQACHLAK (UniProt P61981) | 0.0292 | 0.41
YAE1_Q9NRH1_143_SITPPSHVVDLLDSIEDMDLCHVVPAEK (UniProt Q9NRH1) | -0.335 | 0.0421
ZC3H14_Q6PJT7_652_CTKPDCPFTHVSR (UniProt Q6PJT7) | 0.212 | 0.138
ZDHHC4_Q9NPG8_337_SNLQEIFLPAFPCHER (UniProt Q9NPG8) | 0.0234 | -0.318
ZBTB7A_O95365_34_TQGLLCDVVILVEGR (UniProt O95365) | 0.138 | 0.193
ZBED4_O75132_582_VVCLHCGR (UniProt O75132) | -0.106 | -0.611
XRN2_Q9H0D6_715_HHPLHDFILELYQTGSTEPVEVPPELCHGIQGK (UniProt Q9H0D6) | -0.0366 | 0.0175

Looked up one by one from above, 2 records:
Target | probe-labelled cysteine peptide fold change (10 µM) | probe-labelled cysteine peptide fold change (50 µM)
ZC3HAV1_Q7Z2W4_721_TSSVSLTATFRPQEDFCFLSSK (UniProt Q7Z2W4) | -0.024 | -0.396
ZCCHC2_Q9C0B9_305_GGPEDAEVEVEPCK (UniProt Q9C0B9) | -0.104 | -0.485
